Values quoted from earlier work, collected in patent US20140004171A1, “TREATMENT OF ENDOMETRIOSIS BY INTRAVAGINAL ADMINISTRATION OF A LOW DOSE OF A SELECTIVE PROGESTERONE RECEPTOR MODULATOR (SPRM), ANTI-PROGESTIN, OR ANTI-PROGESTATIONAL AGENT” (ARSTAT Inc., priority 2011, published 2014).
At least one structure is not confirmed: it was looked up by name or label, or the drawing left a doubt.

System: subjects with endometriosis
Conditions: oral

## COC[C@]1(OC)CC[C@H]2[C@@H]3CCC4=CC(=O)CCC4=C3[C@@H](c3ccc(/C=N/O)cc3)C[C@@]21C [asoprisnil]
  Minimally-effective dose for pain relief: 5 mg
